Test results from the supplement of paper PMC5949888.
± gives the standard deviation of the averaged measurements. Most values lie at the floor of the assay. Slopes are relative: functional sequences can read slightly below zero.

System: Saccharomyces cerevisiae PS128 hsf1 delta, HSF1(1-493) fusion
Experiment: growth estimate (transactivation domain function in HSF1 fusion, heat-shock survival) (a.u. (slope of normalised read count over time)); higher = stronger growth at 37°C, i.e. more transactivation activity
Conditions: library: random library

Substance | growth estimate
VNCDGALLPTKPGQMNPARV | < -0.25
VMGGLLRQT | < -0.25
SHNTNGAQLCRAHVTEDMIE | < -0.25
RPVFGCPLRWLQRQRRVHKE | < -0.25
LDQTINSVCIDR | < -0.25
KRYTAALNTARAVPAFY | < -0.25
YRGPVR | < -0.25
DPGPCRSVIALTVSISLQIL | < -0.25
EVECVPLGYGVPGRWQW | < -0.25
TYVLSCDHRS | < -0.25
LLMHL | < -0.25
SVSYEDRQSVRIQKVQRVRP | < -0.25
NPSSCLNSRCRNRVVDAVCR | < -0.25
RRMVINVKGKNHAP | < -0.25
GPASPALWLTKGCELAEPRT | < -0.25
WRCFVLPVA | < -0.25
CVSSVCSGRSDTVNAFFPPA | < -0.25
LFREKALVSWLRHCSS | < -0.25
AKDTETKRKEHMSCAWVLPT | < -0.25
QMFCRSIT | < -0.25
LGGELG | < -0.25
KIYNNATGAEQSRDVSALRG | < -0.25
AMVRAEPRRPIRGRFPQVWS | < -0.25
ISGEMDH | < -0.25

Taken from above.
Value of EVECVPLGYGVPGRWQW under growth estimate: < -0.25
Value of LLMHL under growth estimate: < -0.25

Continued.

Substance | growth estimate
GCTEDTLIDRRQETSRPNGT | < -0.25
KHKRHPVRGSNWSVVGYAED | 0.0119
GGAEHLAVSGGRASHPESRQ | < -0.25
YRCANASSAETEYEARQPAD | < -0.25
LGQIRSMSEPNEHPADNLYW | < -0.25
YVGIRGVGAYRCGALHAGNH | < -0.25
TDVNSELWADSVRDNGGMRW | -0.236
VSRWVPFPAQMTTIARDSIV | < -0.25
RIRSLAALRNTATWCCTKRI | < -0.25
SRADSFRLVRDRRT | < -0.25
RVGHIPGSSAVGAYRVYVMI | < -0.25
VYLTRLLHCSVSTVRSFPVD | < -0.25
RTSVSENPRVGRCAVQIAQR | < -0.25
ASAAVPDLIVRI | < -0.25
SYLQRFTMSVGSTNAYPGGS | < -0.25
RERGNV | -0.246
SRSASGLRQRRNLQGTLAGG | < -0.25
SMRRHALHDPPFARTGPRDT | < -0.25
RLFACRKYSPMGDHLPITRG | < -0.25
SIGSRHLWGVSGSAVSGCRP | -0.245
LHMSLCGTIHRSADCFSAQS | < -0.25
RAVWRI | < -0.25
CRRPGWIFSGSVGDNRSWCL | < -0.25
MRWCP | < -0.25

Two entries drawn at random from the list so far:
Substance | growth estimate
RAVWRI | < -0.25
YRCANASSAETEYEARQPAD | < -0.25

Next part.

Substance | growth estimate
YSIISGY | < -0.25
TRLVGRSIPVLNFFYPLGSF | < -0.25
RSYKPSLSFTGPTYLQ | < -0.25
NFCGLTSLRYETVRHPI | < -0.25
FWDNRRSVPPVIIPHRNVGT | < -0.25
RSPRGSFHISRGMNRCGHSE | < -0.25
ETLHSV | < -0.25
MWFPPRNKPQAGDYRFRRIV | < -0.25
NDYTSLDLTHMSGVCISFQS | < -0.25
WIGWQFPGDRTISNICGLKI | < -0.25
VSRFDRRYYFAGK | < -0.25
DGVSGGPPSRITSVVFHSST | < -0.25
RYQ | < -0.25
SGGIRLSVQQARASWCVVLP | < -0.25
SFEIAWQKVNPVGNLVLTSA | < -0.25
SQGGHGTGFTAAK | < -0.25
DTSSYTGHLEVCAFYSVQRS | < -0.25
GNIPVALSRRSNDATC | -0.221
GKIFGASGERDSKTPKGAGS | -0.18
ICSQRVTRHACKRHLRQGWL | < -0.25
DRKVR | < -0.25
LWSLF | < -0.25
GPYHVSD | < -0.25
RERHDSVLERQLLLQLPYGV | < -0.25

Substance | growth estimate
TSIIGRSLAIKEKGLLRVCT | < -0.25
SLL | -0.248 ± 0.003
SEWSSDFVFSTQAPSSRLSL | < -0.25
RHRAKRGVRWDFGSDLCWST | -0.23
NECAAYPVGYDFCTSLSIDA | < -0.25
RIW | < -0.25
YCV | < -0.25
SQHVSFDPDVSDIHESPGTH | < -0.25
CGPSFCMSCARERAKSGGVG | < -0.25
TRFRDLEGYGLRI | < -0.25
GAEGRIIDETDATLHRYLHV | < -0.25
FMIPNSNSGLTRFT | < -0.25
QNLRGNYNPRVRCFRLIFSP | < -0.25
ILMELFDLHLTFHTLPDLNK | < -0.25
FMPPNSKI | < -0.25
DQVVSCIRTTKTPSKGVPFA | < -0.25
GRPT | < -0.25
VRWSRARK | < -0.25
PNFPRMDRCIDVQLIDWNRR | < -0.25
LGPSHSAQCGLQV | < -0.25
RDISIHRAPRLSL | < -0.25
FAILLDPAMYYSACSMHALV | < -0.25
PGRYERHGAEITVRSITLRR | < -0.25
GFASGRE | < -0.25
